In patent US20250143305A1, “PYRAZOLE COMPOUND AND PEST CONTROL AGENT CONTAINING THE SAME AS ACTIVE INGREDIENT” (MITSUI CHEMICALS CROP & LIFE SOLUTIONS, INC., priority 2022, published 2025):
Some results were stated once for a whole list of compounds, not compound by compound.

Assays:
Nilaparvata lugens = experiment: Insecticidal test against Nilaparvata lugens, spray on rice seedling; type: in vivo; conditions: 100 ppm; acetone solution sprayed on rice seedling; 10 young larvae; 25° C.; after 6 days
Experimental: Insecticidal Test Against Nilaparvata lugens
(§1) 2.5 ml of an acetone solution prepared to have a predetermined concentration of the test compound was sprayed on a rice (Oryza sativa) seedling, and the rice seedling was transferred to a glass tube in which water was retained. After air drying, 10 young larvae were released into the glass tube, and the glass tube was covered with a sponge stopper. The glass tube was allowed to stand in a thermostatic chamber at 25° C., and the numbers of living insects and dead insects were examined after 6 days.

Sogatella furcifera = experiment: Insecticidal test against Sogatella furcifera, spray on rice seedling; type: in vivo; conditions: 100 ppm; acetone solution sprayed on rice seedling; 10 young larvae; 25° C.; after 6 days
Experimental: Insecticidal Test Against Sogatella furcifera
as §1

| Compound | mortality rate (Nilaparvata lugens) | mortality rate (Sogatella furcifera) |
| --- | --- | --- |
| CCSc1c(-c2nc3cc(C(F)(F)F)ncn3n2)nn(C)c1NC(=O)C(F)F [compound 7] | ≥ 50% |  |
| CCSc1c(-c2nc3cc(C(F)(F)F)ncn3n2)nn(C)c1NC(=O)OC [compound 13] | ≥ 50% |  |
| CCSc1c(-c2nc3cc(C(F)(F)F)ncn3n2)nn(C)c1NC(=O)C(F)(F)C(F)(F)F [compound 19] |  | ≥ 50% |
| CCSc1c(-c2nc3cc(C(F)(F)F)ncn3n2)nn(C)c1NC(=O)CC [compound 21] |  | ≥ 50% |
| CCCC(=O)Nc1c(SCC)c(-c2nc3cc(C(F)(F)F)ncn3n2)nn1C [compound 22] |  | ≥ 50% |
| CCS(=O)(=O)c1c(-c2cn3cnc(C(F)(F)F)cc3n2)nn(C)c1NC(=O)CC(C)C [compound 72] | ≥ 50% |  |
| CCSc1c(-c2cn3cnc(C(F)(F)F)cc3n2)nn(C)c1NC(=O)c1ccccc1 [compound 83] | ≥ 50% |  |
| CCS(=O)(=O)c1c(-c2cn3cnc(C(F)(F)F)cc3n2)nn(C)c1NC(=O)c1ccccc1 [compound 85] | ≥ 50% |  |
| CCSc1c(-c2cn3cnc(C(F)(F)F)cc3n2)nn(C)c1NC(=O)c1cccnc1 [compound 87] | ≥ 50% |  |
| CCSc1c(-c2cn3cnc(C(F)(F)F)cc3n2)nn(C)c1NC(=O)C(F)(F)C(F)(F)C(F)(F)C(F)(F)C(F)(F)F [compound 91] | ≥ 50% |  |
| CCCC(=O)Nc1c(SCC)c(-c2cn3cnc(C(F)(F)F)cc3n2)nn1CCC [compound 105] | ≥ 50% |  |
| CCCC(=O)Nc1c(S(=O)(=O)CC)c(-c2cn3cnc(C(F)(F)F)cc3n2)nn1CCC [compound 106] | ≥ 50% |  |
| CCS(=O)(=O)c1c(-c2cn3cnc(C(F)(F)F)cc3n2)nn(C)c1NS(C)(=O)=O [compound 154] | ≥ 50% |  |
| CCSc1c(-c2cn3cnc(C(F)(F)F)cc3n2)nn(CC(F)(F)F)c1NC(=O)C(F)(F)C(F)(F)F [compound 155] | ≥ 50% |  |
| CCS(=O)(=O)c1c(-c2cn3cnc(C(F)(F)F)cc3n2)nn(CC(F)(F)F)c1NC(=O)C(F)(F)C(F)(F)F [compound 156] | ≥ 50% |  |
| CCSc1c(-c2cn3cnc(C(F)(F)F)cc3n2)nn(CC(F)(F)F)c1NC(=O)C(F)(F)C(F)(F)C(F)(F)F [compound 157] | ≥ 50% |  |
| CCS(=O)(=O)c1c(-c2cn3cnc(C(F)(F)F)cc3n2)nn(CC(F)(F)F)c1NC(=O)C(F)(F)C(F)(F)C(F)(F)F [compound 158] | ≥ 50% |  |
| CCCC(=O)Nc1c(SCC)c(-c2cn3cnc(C(F)(F)F)cc3n2)nn1CC(F)(F)F [compound 163] | ≥ 50% |  |
| CCSc1c(-c2cn3c(SC)nc(C(F)(F)F)cc3n2)nn(C)c1NC(=O)C(F)(F)F [compound 224] | ≥ 50% |  |
| CCSc1c(-c2cn3c(O)nc(C(F)(F)F)cc3n2)nn(C)c1NC(=O)C(F)(F)F [compound 303] | ≥ 50% |  |
| CCSc1c(-c2cn3cnc(C(F)(F)F)cc3n2)nn(CC)c1NC(=O)c1ccc(C)cc1 [compound 308] | ≥ 50% |  |
| CCSc1c(-c2cn3cnc(C(F)(F)F)cc3n2)nn(C)c1NC(=O)C1(C)CC1 [compound 377] | ≥ 50% |  |
| CCSc1c(-c2cn3cnc(C(F)(F)F)cc3n2)nn(C)c1NC(=O)C1(C(F)(F)F)CCC1 [compound 378] | ≥ 50% |  |
| CCS(=O)(=O)c1c(-c2cn3cnc(C(F)(F)F)cc3n2)nn(C)c1NC(=O)C1(C(F)(F)F)CCC1 [compound 380] | ≥ 50% |  |
| CCOC=CC(=O)Nc1c(SCC)c(-c2cn3cnc(C(F)(F)F)cc3n2)nn1C [compound 398] | ≥ 50% |  |
| CCS(=O)(=O)c1c(-c2cn3cnc(C(F)(F)F)cc3n2)nn(C)c1NC(=O)CCC(C)C [compound 430] | ≥ 50% |  |
| CCSc1c(-c2cn3cnc(C(F)(F)F)cc3n2)nn(C)c1NC(=O)C(C)(C)C(F)(F)F [compound 434] | ≥ 50% |  |
| CCS(=O)(=O)c1c(-c2cn3cnc(C(F)(F)F)cc3n2)nn(C)c1NC(=O)CC(C(F)(F)F)C(F)(F)F [compound 435] | ≥ 50% |  |
